# Measured values: patent EP0705591A2, “Cyclic amidocarboxy surfactants, synthesis and use thereof” (STEPAN COMPANY, priority 1989, dated 1991)
# Test: Fabric softening evaluation in domestic laundry machine
# Settings: rating from 1 (harshest) to 3 (softest); about 0.2 percent active softener/weight of towel
Compound,"AVERAGE, RINSE CYCLE","AVERAGE, WASH CYCLE"
sodium N-tallowphthalamate,2.2,2
CCCCCCCCCCCCCCCCCCNC(=O)c1ccccc1C(=O)O.OCCN(CCO)CCO [Triethanolammonium N-octadecylphthalamate],2.1,2
